Values quoted from earlier work as cited in patent publication US20090227674A1, “Combination methods fo saha and targretin for treating cancer” (priority 2005, published 2009).

Test system: carcinogen-induced (N-methylnitrosourea) mammary tumors
Details: rats; SAHA administered in diet over the 130 days of the study; cited from earlier work

O=C(CCCCCCC(=O)Nc1ccccc1)NO [Vorinostat, N-Hydroxy-N′-phenyl octanediamide]
inhibition of development and continued growth of mammary tumors: effective at inhibiting the development and continued growth
